# Measured values reported in the supplement of paper PMC10032668.
# Chains of the proteins cited; added tags and fusions are not shown.
# CALR, P27797, UniProt P27797, whole entry: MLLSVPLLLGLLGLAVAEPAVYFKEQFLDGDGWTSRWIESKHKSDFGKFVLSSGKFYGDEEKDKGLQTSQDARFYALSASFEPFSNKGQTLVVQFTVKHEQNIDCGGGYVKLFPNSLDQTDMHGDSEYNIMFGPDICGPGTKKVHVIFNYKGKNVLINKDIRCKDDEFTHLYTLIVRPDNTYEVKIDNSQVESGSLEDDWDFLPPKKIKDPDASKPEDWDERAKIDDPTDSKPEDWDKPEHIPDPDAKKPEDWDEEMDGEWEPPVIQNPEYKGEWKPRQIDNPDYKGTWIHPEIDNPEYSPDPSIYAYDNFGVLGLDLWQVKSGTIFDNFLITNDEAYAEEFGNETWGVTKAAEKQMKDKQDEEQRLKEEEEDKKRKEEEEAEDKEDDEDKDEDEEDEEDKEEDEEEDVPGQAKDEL
# GSPT2, Q8IYD1, UniProt Q8IYD1, whole entry: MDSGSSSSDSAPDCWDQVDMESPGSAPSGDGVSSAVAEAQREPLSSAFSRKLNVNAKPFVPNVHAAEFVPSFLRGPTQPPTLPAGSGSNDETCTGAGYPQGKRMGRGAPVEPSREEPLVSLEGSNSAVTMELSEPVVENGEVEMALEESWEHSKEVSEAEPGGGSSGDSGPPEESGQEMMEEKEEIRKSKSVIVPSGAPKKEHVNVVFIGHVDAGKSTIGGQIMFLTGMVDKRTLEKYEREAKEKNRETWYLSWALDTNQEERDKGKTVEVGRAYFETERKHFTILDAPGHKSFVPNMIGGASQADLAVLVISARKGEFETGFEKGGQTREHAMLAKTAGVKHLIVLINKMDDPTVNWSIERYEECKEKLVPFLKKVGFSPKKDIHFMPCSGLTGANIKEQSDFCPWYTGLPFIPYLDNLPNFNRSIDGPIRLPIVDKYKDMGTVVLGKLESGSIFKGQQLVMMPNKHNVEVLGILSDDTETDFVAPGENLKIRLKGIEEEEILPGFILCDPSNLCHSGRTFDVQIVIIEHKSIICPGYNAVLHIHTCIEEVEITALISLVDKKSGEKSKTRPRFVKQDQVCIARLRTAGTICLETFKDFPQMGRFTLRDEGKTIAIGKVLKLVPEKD
# Some of the results follow. The list holds hits alone, and they repeat only in part.
# Experiments:
# Assay in all cases: PRISMA enrichment of interactor (LFQ) in peptide spot vs all other peptide spots (log2 fold change); higher = stronger / more specific binding of the interactor to the peptide
# ACIN1, Q9UKV3 = biological target: ACIN1, Q9UKV3
# Description: (§1)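 PRISMA: 15-aa overlapping tiles (offset 8 aa) of 60 microproteins, plus SOS1/GLUT1 control peptides, were spot-synthesized on cellulose membranes in triplicate. Membranes were incubated with benzonase-treated HEK293T lysate, and bound proteins were identified by LC-MS/MS with LFQ. Enrichment is the log2 fold change of each protein in one spot versus all other spots. Only interactors passing the significance cutoff are listed.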
# ACLY, P53396 = biological target: ACLY, P53396
# Description: as §1
# CDC45, O75419 = biological target: CDC45, O75419
# Description: as §1
# CENPB, P07199 = biological target: CENPB, P07199
# Description: as §1
# CLNS1A, P54105 = biological target: CLNS1A, P54105
# Description: as §1
# COA6, Q5JTJ3 = biological target: COA6, Q5JTJ3
# Description: as §1
# COIL, P38432 = biological target: COIL, P38432
# Description: as §1
# DIS3, Q9Y2L1 = biological target: DIS3, Q9Y2L1
# Description: as §1
# FAM98B, Q52LJ0 = biological target: FAM98B, Q52LJ0
# Description: as §1
# GDI2, P50395 = biological target: GDI2, P50395
# Description: as §1
# MLEC, Q14165 = biological target: MLEC, Q14165
# Description: as §1
# NEK7, Q8TDX7 = biological target: NEK7, Q8TDX7
# Description: as §1
# NOL9, Q5SY16 = biological target: NOL9, Q5SY16
# Description: as §1
# NOP56, O00567 = biological target: NOP56, O00567
# Description: as §1
# PFKP, Q01813 = biological target: PFKP, Q01813
# Description: as §1
# PFN1, P07737 = biological target: PFN1, P07737
# Description: as §1
# PRDX3, P30048 = biological target: PRDX3, P30048
# Description: as §1
# PSMB5, P28074 = biological target: PSMB5, P28074
# Description: as §1
# PSMG1, O95456 = biological target: PSMG1, O95456
# Description: as §1
# RAB2A, P61019 = biological target: RAB2A, P61019
# Description: as §1
# RRP7A, Q9Y3A4 = biological target: RRP7A, Q9Y3A4
# Description: as §1
# RTRAF, Q9Y224 = biological target: RTRAF, Q9Y224
# Description: as §1
# SF1, Q15637 = biological target: SF1, Q15637
# Description: as §1
# SRSF11, Q05519 = biological target: SRSF11, Q05519
# Description: as §1
# SRSF2, Q01130 = biological target: SRSF2, Q01130
# Description: as §1
# XRN2, Q9H0D6 = biological target: XRN2, Q9H0D6
# Description: as §1
# ZNF687, Q8N1G0 = biological target: ZNF687, Q8N1G0
# Description: as §1
# AP3B1, O00203 = biological target: AP3B1, O00203
# Description: as §1
# ATP6V1C1, P21283 = biological target: ATP6V1C1, P21283
# Description: as §1
# BRIX1, Q8TDN6 = biological target: BRIX1, Q8TDN6
# Description: as §1
# C11orf98, E9PRG8 = biological target: C11orf98, E9PRG8
# Description: as §1
# CALR, P27797 = biological target: CALR, P27797
# Description: as §1
# CDK8, P49336 = biological target: CDK8, P49336
# Description: as §1
# CIP2A, Q8TCG1 = biological target: CIP2A, Q8TCG1
# Description: as §1
# CMAS, Q8NFW8 = biological target: CMAS, Q8NFW8
# Description: as §1
# COX7A2, P14406 = biological target: COX7A2, P14406
# Description: as §1
# DIDO1, Q9BTC0 = biological target: DIDO1, Q9BTC0
# Description: as §1
# DSG2, Q14126 = biological target: DSG2, Q14126
# Description: as §1
# EI24, O14681 = biological target: EI24, O14681
# Description: as §1
# EYA3, Q99504 = biological target: EYA3, Q99504
# Description: as §1
# GNL2, Q13823 = biological target: GNL2, Q13823
# Description: as §1
# GSPT2, Q8IYD1 = biological target: GSPT2, Q8IYD1
# Description: as §1
# HECTD3, Q5T447 = biological target: HECTD3, Q5T447
# Description: as §1
# HSD17B12, Q53GQ0 = biological target: HSD17B12, Q53GQ0
# Description: as §1
# LARP4, Q71RC2 = biological target: LARP4, Q71RC2
# Description: as §1
# LUZP1, Q86V48 = biological target: LUZP1, Q86V48
# Description: as §1
# MAP1B, P46821 = biological target: MAP1B, P46821
# Description: as §1
# MCM10, Q7L590 = biological target: MCM10, Q7L590
# Description: as §1
# MON2, Q7Z3U7 = biological target: MON2, Q7Z3U7
# Description: as §1
# MRTO4, Q9UKD2 = biological target: MRTO4, Q9UKD2
# Description: as §1
# MTDH, Q86UE4 = biological target: MTDH, Q86UE4
# Description: as §1
# MTFR1, Q15390 = biological target: MTFR1, Q15390
# Description: as §1
# MTOR, P42345 = biological target: MTOR, P42345
# Description: as §1
# NUP88, Q99567 = biological target: NUP88, Q99567
# Description: as §1
# NUSAP1, Q9BXS6 = biological target: NUSAP1, Q9BXS6
# Description: as §1
# PRRC2C, Q9Y520 = biological target: PRRC2C, Q9Y520
# Description: as §1
# PSMD14, O00487 = biological target: PSMD14, O00487
# Description: as §1
# RBM17, Q96I25 = biological target: RBM17, Q96I25
# Description: as §1
# SAP18, O00422 = biological target: SAP18, O00422
# Description: as §1
# SERPINH1, P50454 = biological target: SERPINH1, P50454
# Description: as §1
# SUMO2, P61956 = biological target: SUMO2, P61956
# Description: as §1
# TBCD, Q9BTW9 = biological target: TBCD, Q9BTW9
# Description: as §1
# TRIR, Q9BQ61 = biological target: TRIR, Q9BQ61
# Description: as §1
# TXLNG, Q9NUQ3 = biological target: TXLNG, Q9NUQ3
# Description: as §1
# YIF1B, Q5BJH7 = biological target: YIF1B, Q5BJH7
# Description: as §1
binder,measurement,setting,value
FQKEDVVSLLHQAEV [PSMB8-AS1],PRISMA enrichment of interactor (log2),"ACIN1, Q9UKV3",5.34
same,PRISMA enrichment of interactor (log2),"ACLY, P53396",5.64
same,PRISMA enrichment of interactor (log2),"CDC45, O75419",4.6
same,PRISMA enrichment of interactor (log2),"CENPB, P07199",5.44
same,PRISMA enrichment of interactor (log2),"CLNS1A, P54105",7.69
same,PRISMA enrichment of interactor (log2),"COA6, Q5JTJ3",6.84
same,PRISMA enrichment of interactor (log2),"COIL, P38432",8.6
same,PRISMA enrichment of interactor (log2),"DIS3, Q9Y2L1",5.95
same,PRISMA enrichment of interactor (log2),"FAM98B, Q52LJ0",7.31
same,PRISMA enrichment of interactor (log2),"GDI2, P50395",6.38
same,PRISMA enrichment of interactor (log2),"MLEC, Q14165",11.9
same,PRISMA enrichment of interactor (log2),"NEK7, Q8TDX7",4.7
same,PRISMA enrichment of interactor (log2),"NOL9, Q5SY16",5.6
same,PRISMA enrichment of interactor (log2),"NOP56, O00567",7.26
same,PRISMA enrichment of interactor (log2),"PFKP, Q01813",6.83
same,PRISMA enrichment of interactor (log2),"PFN1, P07737",5.92
same,PRISMA enrichment of interactor (log2),"PRDX3, P30048",7.98
same,PRISMA enrichment of interactor (log2),"PSMB5, P28074",7.91
same,PRISMA enrichment of interactor (log2),"PSMG1, O95456",7.14
same,PRISMA enrichment of interactor (log2),"RAB2A, P61019",5.51
same,PRISMA enrichment of interactor (log2),"RRP7A, Q9Y3A4",5.56
same,PRISMA enrichment of interactor (log2),"RTRAF, Q9Y224",8
same,PRISMA enrichment of interactor (log2),"SF1, Q15637",4.93
same,PRISMA enrichment of interactor (log2),"SRSF11, Q05519",6.94
same,PRISMA enrichment of interactor (log2),"SRSF2, Q01130",5.5
same,PRISMA enrichment of interactor (log2),"XRN2, Q9H0D6",5.6
same,PRISMA enrichment of interactor (log2),"ZNF687, Q8N1G0",5.37
PSPVIHKMNGLTTGR [RP11-12K22.1],PRISMA enrichment of interactor (log2),"ACLY, P53396",8.64
same,PRISMA enrichment of interactor (log2),"AP3B1, O00203",4.75
same,PRISMA enrichment of interactor (log2),"ATP6V1C1, P21283",5.17
same,PRISMA enrichment of interactor (log2),"BRIX1, Q8TDN6",6.26
same,PRISMA enrichment of interactor (log2),"C11orf98, E9PRG8",4.74
same,PRISMA enrichment of interactor (log2),"CALR, P27797",8.56
same,PRISMA enrichment of interactor (log2),"CDK8, P49336",3.96
same,PRISMA enrichment of interactor (log2),"CIP2A, Q8TCG1",4.89
same,PRISMA enrichment of interactor (log2),"CMAS, Q8NFW8",5.65
same,PRISMA enrichment of interactor (log2),"COX7A2, P14406",4.45
same,PRISMA enrichment of interactor (log2),"DIDO1, Q9BTC0",5.46
same,PRISMA enrichment of interactor (log2),"DSG2, Q14126",5.83
same,PRISMA enrichment of interactor (log2),"EI24, O14681",5.72
same,PRISMA enrichment of interactor (log2),"EYA3, Q99504",6.17
same,PRISMA enrichment of interactor (log2),"GNL2, Q13823",4.9
same,PRISMA enrichment of interactor (log2),"GSPT2, Q8IYD1",5.28
same,PRISMA enrichment of interactor (log2),"HECTD3, Q5T447",5.62
same,PRISMA enrichment of interactor (log2),"HSD17B12, Q53GQ0",5.87
same,PRISMA enrichment of interactor (log2),"LARP4, Q71RC2",4.48
same,PRISMA enrichment of interactor (log2),"LUZP1, Q86V48",4.65
same,PRISMA enrichment of interactor (log2),"MAP1B, P46821",4.27
same,PRISMA enrichment of interactor (log2),"MCM10, Q7L590",4.1
same,PRISMA enrichment of interactor (log2),"MON2, Q7Z3U7",4.76
same,PRISMA enrichment of interactor (log2),"MRTO4, Q9UKD2",4.68
same,PRISMA enrichment of interactor (log2),"MTDH, Q86UE4",5.54
same,PRISMA enrichment of interactor (log2),"MTFR1, Q15390",3.79
same,PRISMA enrichment of interactor (log2),"MTOR, P42345",6.28
same,PRISMA enrichment of interactor (log2),"NUP88, Q99567",4.25
same,PRISMA enrichment of interactor (log2),"NUSAP1, Q9BXS6",4.49
same,PRISMA enrichment of interactor (log2),"PRRC2C, Q9Y520",6.47
same,PRISMA enrichment of interactor (log2),"PSMD14, O00487",8.95
same,PRISMA enrichment of interactor (log2),"RBM17, Q96I25",4.69
same,PRISMA enrichment of interactor (log2),"SAP18, O00422",5.41
same,PRISMA enrichment of interactor (log2),"SERPINH1, P50454",5.82
same,PRISMA enrichment of interactor (log2),"SUMO2, P61956",4.9
same,PRISMA enrichment of interactor (log2),"TBCD, Q9BTW9",7.64
same,PRISMA enrichment of interactor (log2),"TRIR, Q9BQ61",4.07
same,PRISMA enrichment of interactor (log2),"TXLNG, Q9NUQ3",5.85
same,PRISMA enrichment of interactor (log2),"YIF1B, Q5BJH7",4.19

# Exported as tab-separated lines: part of the list above.
binder	measurement	setting	value
FQKEDVVSLLHQAEV [PSMB8-AS1]	PRISMA enrichment of interactor (log2)	CENPB, P07199	5.44
PSPVIHKMNGLTTGR [RP11-12K22.1]	PRISMA enrichment of interactor (log2)	ACLY, P53396	8.64
